The list shows a part of the results. These are further read-outs of the screen, such as a control signal, another cell line or another target. No call is given for them. Compounds called inactive in the main read-out are mostly missing here. The note in brackets gives the kind of curve behind each potency; many fits are weak.
Assay: qHTS Assay for Lipid Storage Modulators in Drosophila S3 Cells;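 as to cell number change: cells counted by Cell Tracker Red CMTPX staining in the red channel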
Details: BODIPY lipid droplet fluorescence, 18-24 h; for cell number change: measured here: cell count max response, cells fed with added oleic acid
Outline: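 Laser-scanning cytometry quantifies lipid droplet accumulation (500–530 nm total intensity; droplet/cell object ratio) in oleic acid-fed (400 uM added) Drosophila S3 cells treated with a concentration series. 20 uM Triacsin C defined 100% inhibition.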

[1] = measured here: cell number channel AC50, cells fed with added oleic acid
[2] = measured here: lipid fluorescence (Fed channel) AC50, cells fed with added oleic acid

Row | Structure (SMILES) | cell number change | AC50 [1] | AC50 [2]
1 | N/C(=N\OC(=O)COc1ccc([N+](=O)[O-])cc1)c1cccnc1 | 63.4% | 2.59 µM [rising, full curve] | 3.26 µM [rising, full curve]
2 | CCCOC(=O)Oc1ccc2c(=O)c(Oc3cc(C)cc(C)c3)coc2c1 | -17.2% | 0.00517 µM [falling, full curve, poor fit] | –
3 | CCN(CC)C(=O)C(=O)N/N=C/c1ccc(F)cc1 | 13.5% | – | 0.103 µM [rising, full curve, poor fit]
4 | O=C(Nc1ccccc1N1CCCC1)C1CC(=O)N(Cc2ccccc2)C1 (stereo not drawn) | – | – | 0.058 µM [rising, full curve, poor fit]
5 | CC(C)c1c(O)nc(SCc2ccc(F)cc2)[nH]c1=O | 8.5% | – | 4.11 µM [rising, full curve]
6 | CCCn1nc(C(=O)Nc2ccc3c(c2)OCO3)c2ccccc2c1=O | 37.4% | 32.6 µM [rising, single point] | 6.51 µM [rising, full curve]
7 | N#Cc1c(N)nc2c(c1-c1ccncc1)CCCC2 | -14.7% | – | –
8 | Oc1c(Cl)cc(Cl)cc1/C=C/c1ccc2cccc(O)c2n1 | – | 0.058 µM [falling, full curve, poor fit] | 0.731 µM [falling, single point]
9 | COc1ccc(OC)c(C(c2nnnn2CCC(C)C)N2CCN(C(=O)c3ccco3)CC2)c1 (stereo not drawn) | -5.68% | – | 3.66 µM [rising, single point]
10 | COc1ccc(C(=O)C(Cc2cc(C(C)=O)ccc2OC)N2CCCC2)cc1 (stereo not drawn) | 43.9% | – | 29.1 µM [rising, single point]
11 | O=C(Nc1ccc2oc(-c3ccncc3)nc2c1)c1ccc(Br)o1 | 1.28% | – | 0.259 µM [rising, partial curve]
12 | CCOC(=O)c1cc(CC)sc1NC(=O)Cc1ccsc1 | 38.7% | 16.4 µM [rising, partial curve, poor fit] | –
13 | CC(C)(C)OC(=O)N1Cc2ccccc2C[C@H]1C(=O)NC1CCCC1 | 17% | – | 16.4 µM [rising, partial curve]
14 | CCc1ccc(NC(=O)C2CCCN(S(=O)(=O)c3ccc4c(c3)CCCN4C(C)=O)C2)cc1 (stereo not drawn) | -22.6% | – | 1.16 µM [falling, partial curve, poor fit]
15 | CCOC(=O)c1c2n(c3ccc(OC(C)=O)cc13)CCC2 | 9.11% | 0.82 µM [rising, full curve, poor fit] | –
16 | COC(=O)c1ccc(CSCc2ccc(C(=O)OC)o2)o1 | 71.2% | 6.51 µM [rising, full curve, poor fit] | 29.1 µM [rising, single point]

Structures above that have a furan ring, fused or not (3):
Row | Structure (SMILES) | cell number change | AC50 [1] | AC50 [2]
9 | COc1ccc(OC)c(C(c2nnnn2CCC(C)C)N2CCN(C(=O)c3ccco3)CC2)c1 (stereo not drawn) | -5.68% | – | 3.66 µM [rising, single point]
11 | O=C(Nc1ccc2oc(-c3ccncc3)nc2c1)c1ccc(Br)o1 | 1.28% | – | 0.259 µM [rising, partial curve]
16 | COC(=O)c1ccc(CSCc2ccc(C(=O)OC)o2)o1 | 71.2% | 6.51 µM [rising, full curve, poor fit] | 29.1 µM [rising, single point]
